These are yes or no findings as the source states them, for the method shown. For some assays here: A result given as binding can be weak or reduced; the word gives no strength.
B1: PKC-3 (1–219) (domain or fragment, UniProt Q19266 1-219)
chain: MSSPTSLEEDGDIKLKTRFQGQVVVLYARPPLILDDFFALLKDACKQHKKQDITVKWIDEDGDPISIDSQMELDEAVRCLNSSQEAELNIHVFVGKPELPGLPCQGEDKTVYRRGARRWKKIYLYNGHRFQAKRLNRRIQCFICHDYIWGIGRQGFRCVDCRLCVHKKCHRHVRTHCGQALQGPNIIPMAPASGSLKGARSNTSSSTTRSGGGIDNGAF
B2: PKC-3 region 94–184 (domain or fragment, UniProt Q19266 94-184)
chain: VGKPELPGLPCQGEDKTVYRRGARRWKKIYLYNGHRFQAKRLNRRIQCFICHDYIWGIGRQGFRCVDCRLCVHKKCHRHVRTHCGQALQGP

How the values were obtained:
Assay in all cases: two-hybrid; yeast two-hybrid of fragments and mutants: PKC-3 fragments with full length SLD-2; SLD-2 fragments and mutants with PKC-3 (1–219); scored +/-
SLD-2 8A (C. elegans) = target: SLD-2 8A (C. elegans)
SLD-2 8D (C. elegans) = target: SLD-2 8D (C. elegans)
SLD-2 EDDD (C. elegans) = target: SLD-2 EDDD (C. elegans)
[1] = target: SLD-2, full length (C. elegans) (UniProt O44761)

Binder	binding (SLD-2 8A (C. elegans))	binding (SLD-2 8D (C. elegans))	binding (SLD-2 EDDD (C. elegans))	binding [1]
B1	binds	binds	no binding	binds
B2	–	–	–	binds
